The values below come from patent US9821080B2 (priority 2011, dated 2017).

The nature of this series: general procedure: Boc solid-phase peptide synthesis; NHCH2CH2SCH2-Resin (cysteamine-linked resin; PR II loading 1.7 mmol NH2/g); TBTU/HOBt (oxybenzotriazol esters). The settings on record: conjugation step.

“(Suc-Tyr)4-(Lys)2-Lys-NHCH2CH2S-Mal-βAla-CMG2-Ad-DOPE” had a conjugation yield of 76%.
As for “(Suc-Tyr)8-(Lys)4-(Lys)2-Lys-NHCH2CH2S-Mal-βAla-CMG2-Ad-DOPE”, the conjugation yield is 88%.
